No constants are given. Whether binding was seen depends on the method and setting. Binding seen in cells or lysates may run through a third protein. A yes stands for co-enrichment or nearness to the bait. Other partners may have been found.
These substances were tested against FLAG‐STREP‐tagged WBP1L construct (WW domain binding protein 1‐like) (UniProt Q8BGW2) (assay: affinity purification with mass spectrometry; WBP1L‐FLAG‐STREP isolated by tandem purification on anti‐FLAG and Streptactin beads from lysates of transduced Wbp1l−/− immortalized monocyte/macrophage progenitors; cells stimulated for 2 min with CXCL12 or left untreated; two independent analyses).

Protein sequences, listed by entry. Tags and fused reporters are not part of them.
UniProt Q8BGW2: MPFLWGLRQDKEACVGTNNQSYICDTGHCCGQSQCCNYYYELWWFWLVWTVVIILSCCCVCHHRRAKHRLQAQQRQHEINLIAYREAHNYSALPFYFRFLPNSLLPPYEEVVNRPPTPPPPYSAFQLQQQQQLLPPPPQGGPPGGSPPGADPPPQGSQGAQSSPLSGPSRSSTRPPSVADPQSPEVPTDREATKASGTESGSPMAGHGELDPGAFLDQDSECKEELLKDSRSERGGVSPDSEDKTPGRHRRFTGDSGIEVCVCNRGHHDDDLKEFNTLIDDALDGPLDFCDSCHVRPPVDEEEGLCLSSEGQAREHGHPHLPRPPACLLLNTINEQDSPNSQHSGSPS
UniProt Q8CFI0: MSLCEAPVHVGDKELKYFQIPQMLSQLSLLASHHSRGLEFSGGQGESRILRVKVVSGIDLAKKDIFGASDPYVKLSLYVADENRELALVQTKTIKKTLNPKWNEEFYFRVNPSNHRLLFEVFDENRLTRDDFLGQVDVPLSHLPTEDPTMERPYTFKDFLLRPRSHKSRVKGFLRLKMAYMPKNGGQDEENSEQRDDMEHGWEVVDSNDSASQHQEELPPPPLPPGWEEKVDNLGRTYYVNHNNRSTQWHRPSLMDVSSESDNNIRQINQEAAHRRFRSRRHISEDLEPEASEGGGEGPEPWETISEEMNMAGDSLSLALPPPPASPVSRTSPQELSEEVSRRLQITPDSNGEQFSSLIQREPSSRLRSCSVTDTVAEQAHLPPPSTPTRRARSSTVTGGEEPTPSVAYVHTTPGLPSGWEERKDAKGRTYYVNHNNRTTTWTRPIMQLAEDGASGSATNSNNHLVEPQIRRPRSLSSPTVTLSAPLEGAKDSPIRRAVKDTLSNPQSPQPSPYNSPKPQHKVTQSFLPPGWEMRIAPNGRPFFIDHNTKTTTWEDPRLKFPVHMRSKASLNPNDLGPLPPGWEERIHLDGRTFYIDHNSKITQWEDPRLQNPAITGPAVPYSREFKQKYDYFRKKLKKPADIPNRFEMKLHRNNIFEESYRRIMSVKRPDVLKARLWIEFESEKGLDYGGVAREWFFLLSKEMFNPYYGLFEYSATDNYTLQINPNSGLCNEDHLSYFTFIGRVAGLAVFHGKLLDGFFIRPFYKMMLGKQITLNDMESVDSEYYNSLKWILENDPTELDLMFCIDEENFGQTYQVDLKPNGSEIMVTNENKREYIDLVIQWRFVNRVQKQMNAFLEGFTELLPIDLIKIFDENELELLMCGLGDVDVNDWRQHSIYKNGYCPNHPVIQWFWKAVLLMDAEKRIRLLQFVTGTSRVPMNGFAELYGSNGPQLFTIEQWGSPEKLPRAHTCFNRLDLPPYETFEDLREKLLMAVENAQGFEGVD
UniProt Q9DBH0: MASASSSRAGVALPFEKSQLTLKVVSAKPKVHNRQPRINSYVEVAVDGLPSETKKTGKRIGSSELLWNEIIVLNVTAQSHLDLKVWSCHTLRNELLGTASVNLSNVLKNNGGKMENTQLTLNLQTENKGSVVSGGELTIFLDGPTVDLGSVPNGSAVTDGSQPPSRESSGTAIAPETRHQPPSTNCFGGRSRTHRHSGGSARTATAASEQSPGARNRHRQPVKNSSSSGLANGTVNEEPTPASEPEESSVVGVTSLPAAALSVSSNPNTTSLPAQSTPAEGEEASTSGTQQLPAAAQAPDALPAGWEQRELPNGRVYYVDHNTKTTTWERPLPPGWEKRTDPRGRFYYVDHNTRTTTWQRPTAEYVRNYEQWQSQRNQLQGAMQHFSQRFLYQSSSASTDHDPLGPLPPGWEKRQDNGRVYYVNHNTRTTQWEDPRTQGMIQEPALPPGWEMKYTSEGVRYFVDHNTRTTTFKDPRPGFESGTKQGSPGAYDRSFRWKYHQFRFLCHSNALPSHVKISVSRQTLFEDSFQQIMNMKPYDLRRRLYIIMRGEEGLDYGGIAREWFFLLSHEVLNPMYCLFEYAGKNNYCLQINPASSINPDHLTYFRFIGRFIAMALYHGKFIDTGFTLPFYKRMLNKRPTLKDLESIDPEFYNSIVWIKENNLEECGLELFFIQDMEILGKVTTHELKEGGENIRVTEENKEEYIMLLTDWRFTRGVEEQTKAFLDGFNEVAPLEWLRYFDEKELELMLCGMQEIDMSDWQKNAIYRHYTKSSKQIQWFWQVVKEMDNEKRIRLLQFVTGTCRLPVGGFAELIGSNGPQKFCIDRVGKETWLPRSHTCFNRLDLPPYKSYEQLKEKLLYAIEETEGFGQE
UniProt Q8C863: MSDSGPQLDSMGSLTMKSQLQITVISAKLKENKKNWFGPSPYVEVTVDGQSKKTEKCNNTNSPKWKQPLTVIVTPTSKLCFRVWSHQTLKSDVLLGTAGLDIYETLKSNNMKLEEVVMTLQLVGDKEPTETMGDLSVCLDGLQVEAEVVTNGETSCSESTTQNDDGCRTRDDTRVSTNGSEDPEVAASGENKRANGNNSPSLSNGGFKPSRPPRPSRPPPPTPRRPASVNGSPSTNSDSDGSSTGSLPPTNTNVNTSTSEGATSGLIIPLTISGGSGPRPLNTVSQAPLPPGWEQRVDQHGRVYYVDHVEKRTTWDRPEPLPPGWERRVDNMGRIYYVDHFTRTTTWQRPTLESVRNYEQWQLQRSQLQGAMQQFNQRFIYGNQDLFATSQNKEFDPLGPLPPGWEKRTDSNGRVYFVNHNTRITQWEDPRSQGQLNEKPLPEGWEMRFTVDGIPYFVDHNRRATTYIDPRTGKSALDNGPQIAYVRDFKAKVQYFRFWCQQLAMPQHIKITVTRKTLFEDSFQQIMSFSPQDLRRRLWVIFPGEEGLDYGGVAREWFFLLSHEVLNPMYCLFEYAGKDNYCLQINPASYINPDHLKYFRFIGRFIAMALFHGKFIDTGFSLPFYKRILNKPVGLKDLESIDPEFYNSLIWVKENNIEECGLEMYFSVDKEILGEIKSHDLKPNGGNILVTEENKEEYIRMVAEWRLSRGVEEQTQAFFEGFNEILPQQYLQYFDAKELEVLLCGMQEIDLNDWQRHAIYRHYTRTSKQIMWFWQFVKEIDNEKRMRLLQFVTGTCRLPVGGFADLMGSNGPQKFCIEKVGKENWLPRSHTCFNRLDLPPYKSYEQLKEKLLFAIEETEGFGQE

Substance	binding
NEDD4L, endogenous in immortalized monocyte/macrophage progenitors (from UniProt Q8CFI0 1-1004) (enzyme)	binds
WWP2, endogenous in immortalized monocyte/macrophage progenitors (from UniProt Q9DBH0 1-870) (enzyme)	binds
WWP1, endogenous (from UniProt Q8BZZ3 1-918) (enzyme)	binds
ITCH, endogenous (from UniProt Q8C863 1-864) (enzyme)	binds

— article PMC6991692
